Measured values reported in the supplement of paper PMC11348887.
Counter-ions that a name gives are not always drawn. The list shows a part of the results. Small differences around the control level are noise.

How the values were obtained:
Details in all cases: 5 µM; treatment: days 7-14 after plating, readout day 21
[1] = tested on: hPSC-derived cortical neurons (WA09); test: nucleus area z-score vs screen plate; higher = larger nuclei (more mature)
[2] = tested on: hPSC-derived cortical neurons (WA09); test: total neurite length per nucleus (MAP2) z-score; higher = more neurite growth
[3] = tested on: hPSC-derived cortical neurons (WA09); test: nucleus roundness z-score vs screen plate; higher = rounder nuclei (more mature)
[4] = tested on: hPSC-derived cortical neurons (WA09); test: KCl-induced FOS+/EGR-1+ double-positive nuclei fraction z-score (KCl minus unstimulated); higher = stronger activity-induced IEG response

Compound | nucleus area z-score [1] | total neurite length per nucleus (z-score) [2] | nucleus roundness z-score [3] | KCl-induced FOS+/EGR-1+ double-positive nuclei fraction z-score [4]
CC(C)OC(=O)C1=CN(C(=O)c2ccc(F)c(F)c2)CC(C)(C)c2c1[nH]c1ccccc21 | 0.379 | 0.516 | 1.17 | 0.629
CC(C)(C)CC(C)(C)c1ccc(O)c(Cc2ccc(Cl)cc2Cl)c1 [Clofoctol] | -1.16 | 0.233 | 0.941 | 1.47
CC(C(=O)O)c1ccc2c(c1)[nH]c1ccc(Cl)cc12 (configuration not stated) [Carprofen] | 0.106 | 1.01 | 0.381 | -0.726
Cc1cc(C)cc(C(=O)NOCCCCCC(=O)NO)c1 | -13.6 | -4.97 | -6.88 | -1.26
O=C(c1ccc(F)cc1)N1CCC[C@H](c2nc(-c3ccc(F)cc3)no2)C1 | 0.808 | -0.365 | -0.302 | 0.0232
C=CCc1cc(OC)c(O)c(C(=O)NCCO)c1 [Alibendol] | 0.54 | -0.193 | 0.159 | 0.176
CN(C)CCOC(c1ccc(Cl)cc1)c1ccccn1 (configuration not stated) [CarbinoxaMine Maleate] | 0.416 | 0.116 | -0.199 | 0.0926
CC1=NN(c2ccc(C)c(C)c2)C(=O)/C1=N\Nc1cccc(-c2cccc(C(=O)O)c2)c1O [Eltrombopag] | 0.911 | -0.506 | 0.309 | -0.00451
CC1(C)O[C@@H]2C[C@H]3[C@@H]4CCC5=CC(=O)C=C[C@]5(C)[C@@]4(F)[C@@H](O)C[C@]3(C)[C@]2(C(=O)CO)O1 [Triamcinolone Acetonide] | -0.538 | 0.178 | -0.139 | -0.0449
OC[C@H]1O[C@H](O[C@]2(CCl)O[C@H](CCl)[C@@H](O)[C@@H]2O)[C@H](O)[C@@H](O)[C@H]1Cl [Sucralose] | -0.16 | 0.188 | 0.0641 | 0.00185
OC(CCN1CCCC1)(c1ccccc1)C1CCCCC1 (configuration not stated) [Procyclidine HCl] | 0.176 | 0.72 | 0.577 | -0.42
CC(C)CC(CC(=O)NO)C(=O)N[C@@H](Cc1ccc2ccccc2c1)C(=O)N[C@@H](C)C(=O)NCCN (some centres not stated) | 0.192 | 0.116 | 0.418 | 1.14
COc1ccc(/C=C/C(=O)C2(C(=O)/C=C/c3ccc(OC)c(OC)c3)CCCCC2)cc1OC | -0.341 | 1.35 | 0.2 | 0.391
CC(C)COc1ccc(CNC(=O)N(Cc2ccc(F)cc2)C2CCN(C)CC2)cc1 [Pimavanserin] | -12 | -5.31 | -7.8 | -0.76
Cn1c(N2CCCCS2(=O)=O)nc(C(=O)NCc2ccc(F)cc2)c(O)c1=O | -0.463 | 0.603 | 0.924 | 1.98
CC(C)CCn1c(CN2CCN(C(=O)C3CC3)CC2)nc2c1c(=O)n(C)c(=O)n2C | 0.789 | -0.898 | -1.64 | -0.0383
C[C@@H]1CN(c2c(F)c(N)c3c(=O)c(C(=O)O)cn(C4CC4)c3c2F)C[C@H](C)N1 [Sparfloxacin] | 0.933 | 0.361 | -0.076 | 0.26
CCOC(=O)C1=C[C@]2(CC)CCCN3CCc4c(n1c1ccccc41)[C@@H]32 [Vinpocetine] | 1.65 | 0.55 | 0.363 | 1.23
O=C(N/N=C/c1ccc([N+](=O)[O-])o1)c1ccc(O)cc1 [Nifuroxazide] | 1.36 | -0.219 | 0.0132 | 0.534
C1CNCCN1 [Piperazine] | 0.763 | -1.08 | -0.723 | 0.424
COc1ccc2c3c1O[C@H]1C[C@@H](O)C=C[C@@]31CCN(C)C2 [Galanthamine HBr] | 0.142 | 1.15 | 0.617 | 0.801
Cc1cc(=O)[nH]c(=S)[nH]1 [Methylthiouracil] | -0.172 | 1.09 | -0.211 | 2.01
CC(CCc1ccccc1)NCC(O)c1ccc(O)c(C(N)=O)c1 (configuration not stated) [Labetalol HCl] | 1.72 | -0.012 | 0.471 | -0.083
O=S(=O)(c1cccc2cnccc12)N1CCCNCC1 [Fasudil (HA-1077) HCl] | 0.744 | -1.51 | -1.08 | -1.74
O=C1Cc2cc(CCN3CCN(c4nsc5ccccc45)CC3)c(Cl)cc2N1 [Ziprasidone HCl] | -1.09 | -0.278 | -0.544 | -0.582
O=C(/C=C/c1ccc(O)cc1)c1ccc(O)cc1O [Isoliquiritigenin] | 1.22 | -0.638 | 0.574 | 0.17
CC/C(=C(\c1ccc(O)cc1)c1ccc(OCCNC)cc1)c1ccccc1 [Endoxifen HCl] | -5.19 | -1.22 | -3.64 | -1.33
COc1ccccc1OCC(O)CN1CCN(CC(=O)Nc2c(C)cccc2C)CC1 (configuration not stated) [Ranolazine] | 0.767 | 0.371 | 0.843 | 0.356

Record cards, from the list above.
`O=S(=O)(c1cccc2cnccc12)N1CCCNCC1` [Fasudil (HA-1077) HCl] is listed as nucleus area z-score [1]: 0.744; total neurite length per nucleus (z-score) [2]: -1.51; nucleus roundness z-score [3]: -1.08; KCl-induced FOS+/EGR-1+ double-positive nuclei fraction z-score [4]: -1.74
`O=C1Cc2cc(CCN3CCN(c4nsc5ccccc45)CC3)c(Cl)cc2N1` [Ziprasidone HCl] is listed as nucleus area z-score [1]: -1.09; total neurite length per nucleus (z-score) [2]: -0.278; nucleus roundness z-score [3]: -0.544; KCl-induced FOS+/EGR-1+ double-positive nuclei fraction z-score [4]: -0.582
